This note sets out measurements from PMC4158885.

Chains of the proteins cited; added tags and fusions are not shown.
UniProt P08515, whole entry: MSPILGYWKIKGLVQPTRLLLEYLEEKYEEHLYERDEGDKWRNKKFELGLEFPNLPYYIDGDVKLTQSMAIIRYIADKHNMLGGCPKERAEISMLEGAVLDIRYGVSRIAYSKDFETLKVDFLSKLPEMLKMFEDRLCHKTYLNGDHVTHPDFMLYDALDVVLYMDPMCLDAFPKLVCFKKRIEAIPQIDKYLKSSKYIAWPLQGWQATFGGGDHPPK

Series [1] addresses T1, ctPan2 E899A (Chaetomium thermophilum) (UniProt G0SAK8).
T1 sequence (looked up, limits assumed): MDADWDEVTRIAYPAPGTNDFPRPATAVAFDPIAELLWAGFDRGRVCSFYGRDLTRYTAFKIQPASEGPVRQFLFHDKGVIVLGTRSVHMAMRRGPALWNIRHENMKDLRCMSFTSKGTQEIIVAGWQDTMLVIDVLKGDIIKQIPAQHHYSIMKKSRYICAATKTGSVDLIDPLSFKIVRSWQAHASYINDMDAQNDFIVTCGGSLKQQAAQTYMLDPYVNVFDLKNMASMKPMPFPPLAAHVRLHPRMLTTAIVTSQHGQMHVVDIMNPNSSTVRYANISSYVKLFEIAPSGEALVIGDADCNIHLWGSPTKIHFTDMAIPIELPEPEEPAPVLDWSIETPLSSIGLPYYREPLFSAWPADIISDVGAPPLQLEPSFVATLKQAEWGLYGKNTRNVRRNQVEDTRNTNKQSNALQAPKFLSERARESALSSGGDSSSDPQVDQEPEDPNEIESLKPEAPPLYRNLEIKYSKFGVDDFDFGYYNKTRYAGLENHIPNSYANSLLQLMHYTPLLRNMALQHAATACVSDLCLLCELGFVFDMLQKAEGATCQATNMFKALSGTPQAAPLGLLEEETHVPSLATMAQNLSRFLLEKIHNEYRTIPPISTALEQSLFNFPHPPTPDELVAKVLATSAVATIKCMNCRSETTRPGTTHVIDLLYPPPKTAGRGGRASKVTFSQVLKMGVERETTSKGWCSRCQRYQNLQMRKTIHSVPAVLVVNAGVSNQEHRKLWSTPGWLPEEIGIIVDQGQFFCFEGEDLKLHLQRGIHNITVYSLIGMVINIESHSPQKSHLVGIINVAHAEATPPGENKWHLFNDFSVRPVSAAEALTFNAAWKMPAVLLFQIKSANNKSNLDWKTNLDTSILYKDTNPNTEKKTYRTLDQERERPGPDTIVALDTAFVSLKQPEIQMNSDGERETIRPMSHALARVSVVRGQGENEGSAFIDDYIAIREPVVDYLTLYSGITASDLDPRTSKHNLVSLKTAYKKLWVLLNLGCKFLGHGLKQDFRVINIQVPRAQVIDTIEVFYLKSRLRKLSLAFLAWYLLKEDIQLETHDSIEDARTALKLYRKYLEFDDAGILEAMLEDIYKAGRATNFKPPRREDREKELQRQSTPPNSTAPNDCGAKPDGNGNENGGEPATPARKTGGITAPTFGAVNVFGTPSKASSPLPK
Kind of series: fluorescence polarization. To be noted: 1 mM Mg2+, much weaker than ctPan3 PKC, heading states Pan2 does not bind RNA; FP: 10 mM Tris pH 8.0, 50 mM NaCl, 1 mM MgCl2, 5 mM beta-mercaptoethanol, 20 nM RNA, temperature not stated; recombinant protein; protein details: Strep-II, His; label: 5' Cy3. On the technique in general: Polarisation of emitted light reports the rotation of a fluorescent probe.

For series [2], the target named is GST (UniProt P08515). The series can be described thus: fluorescence polarization. Particulars: 1 mM Mg2+, negative control; FP: 10 mM Tris pH 8.0, 50 mM NaCl, 1 mM MgCl2, 5 mM beta-mercaptoethanol, 20 nM RNA, temperature not stated; recombinant protein; label: 5' Cy3.

Construct, isoform or probe ends are uncertain for at least one entry. For some assays here: No signal at the amounts used counts as a negative. For some assays here: The comparison behind a weaker result is the experiment's own reference, which may not be listed here. For some assays here: Protein sequences can lack the tags named with them.

In the case of AAAAAAAAAAAAAAAAAAAAAAAAA [Cy3-A25 RNA], the binding result is “binds more weakly” in series [1] and “no binding” in series [2].
